Among the data in PMC3517593 are binding values, retold here.

Protein sequences, listed by entry. Tags and fused reporters are not part of them.
UniProt P84022: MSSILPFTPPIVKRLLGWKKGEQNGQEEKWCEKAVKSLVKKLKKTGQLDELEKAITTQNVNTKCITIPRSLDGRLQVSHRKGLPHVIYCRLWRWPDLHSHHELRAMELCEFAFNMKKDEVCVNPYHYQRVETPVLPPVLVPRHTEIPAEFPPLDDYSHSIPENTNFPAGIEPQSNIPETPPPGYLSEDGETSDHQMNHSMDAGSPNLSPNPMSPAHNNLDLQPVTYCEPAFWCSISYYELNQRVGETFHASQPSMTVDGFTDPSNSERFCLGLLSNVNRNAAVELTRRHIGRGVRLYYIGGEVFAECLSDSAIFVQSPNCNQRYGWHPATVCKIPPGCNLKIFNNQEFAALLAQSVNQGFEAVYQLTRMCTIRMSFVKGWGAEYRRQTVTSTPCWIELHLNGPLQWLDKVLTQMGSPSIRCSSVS

Results are given in words; binding and its absence hold for the method and conditions named. Binding seen in cells or lysates may run through a third protein. Tags and fused reporters may be left off the sequences shown.

The experiment deals with T1, HA-tagged ΔNp73α (UniProt O15350).
T1 sequence: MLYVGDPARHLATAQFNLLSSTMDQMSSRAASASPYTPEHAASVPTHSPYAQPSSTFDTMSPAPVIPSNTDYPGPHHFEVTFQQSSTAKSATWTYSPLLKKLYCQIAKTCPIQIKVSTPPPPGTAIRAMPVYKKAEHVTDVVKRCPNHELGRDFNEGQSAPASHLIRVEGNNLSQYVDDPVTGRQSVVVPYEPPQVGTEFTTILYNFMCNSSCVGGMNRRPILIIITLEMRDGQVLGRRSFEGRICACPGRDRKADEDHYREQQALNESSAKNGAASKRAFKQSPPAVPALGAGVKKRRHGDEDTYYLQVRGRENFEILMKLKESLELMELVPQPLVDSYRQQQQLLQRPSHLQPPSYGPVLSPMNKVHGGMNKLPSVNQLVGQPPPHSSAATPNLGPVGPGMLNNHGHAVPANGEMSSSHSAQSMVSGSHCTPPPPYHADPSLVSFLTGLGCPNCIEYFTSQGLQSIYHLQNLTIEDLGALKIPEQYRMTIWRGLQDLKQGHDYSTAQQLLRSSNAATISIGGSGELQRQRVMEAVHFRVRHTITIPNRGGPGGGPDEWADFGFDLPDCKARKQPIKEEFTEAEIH
The experiment in a line: co-IP; immunoprecipitation with α-HA antibody from extracts of soluble proteins of Hek293ΔNp73 cells, left untreated, treated with 1 ng/ml TGF-β1, ΔNp73 induced (1 µg/ml tetracycline) or both; blotted with α-HA or α-Smad3; no DNA added.

“endogenous Smad3 (from UniProt P84022 1-425)”: the binding entry was “no binding”.
